From PubChem BioAssay AID493014 (National Center for Advancing Translational Sciences (NCATS), 2011)
Some of the results follow. These are further read-outs of the screen, such as a control signal, another cell line or another target. No call is given for them. Most of these compounds were active or inconclusive in the main read-out, so they are no random draw. Potencies come from curve fits of mixed quality, noted in brackets.

Experiment: qHTS Assay to Find Inhibitors of Chronic Active B-Cell Receptor Signaling
Details: ABC-DLBCL IkBa-CBG/CBR reporter, luminescence ratio (green luciferase fused to IkBa over red control in TMD8 lymphoma cells), 4 h
Procedure, shortened: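 Concentration-response series (up to 46 uM) were applied to TMD8 dual-reporter cells for 4 h at 37C with doxycycline. Green/red ratio, after filter-overlap correction, defined %Activity; red signal alone was normalised to basal cells and zero luminescence.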

[1] = measured here: CBR red luminescence, cell number
[2] = measured here: IkBa-CBG green luminescence

| SMILES | AC50 [1] | AC50 [2] |
| --- | --- | --- |
| O=C(Nc1ccccc1C(=O)NCc1ccco1)Nc1cccc2ccccc12 | 0.631 µM [falling, full curve, poor fit] |  |
| Cn1c2c(c3ccccc31)CCSC2=O | 12.6 µM [rising, partial curve] |  |
| Cc1ccc(N2CCN(C3=NC(=O)/C(=C\c4cccs4)S3)CC2)cc1 | 0.0206 µM [rising, full curve, poor fit] |  |
| COc1ccc(Cl)cc1NC(=O)CSc1nc(=O)n(CCN(C)C)c2c1CCCC2 | 29.1 µM [falling, partial curve, poor fit] |  |
| COc1cc([N+](=O)[O-])cc(/C=N/NC(=O)CSc2nnc(-c3ccccc3)n2C)c1O | 8.91 µM [rising, partial curve, poor fit] |  |
| Cn1c(C(=O)NC2CCCCC2)cc2c(=O)n(C)c3ccccc3c21 | 29.1 µM [falling, single point] |  |
| CC1=NOC(=O)/C1=C\c1ccc(-c2ccccc2Br)o1 | 35.5 µM [rising, single point] |  |
| CCCN(CCC)C(=O)CSc1nc2ccccc2c(=O)n1Cc1ccco1 | 6.31 µM [falling, full curve] |  |
| O=[N+]([O-])c1cc(S(=O)(=O)CCCN2CCOCC2)ccc1F | 2.24 µM [rising, full curve] |  |
| O=C(Nc1ccccc1C(=O)N/N=C/c1ccc(O)cc1)c1ccccc1 | 1.26 µM [falling, full curve] | 2 µM [rising, partial curve, poor fit] |
| Cc1cccc(Nc2nc(N)c(C#N)c(CC#N)c2C#N)c1 | 3.66 µM [falling, partial curve, poor fit] |  |
| Cc1cc(C)n(CC(O)CN2c3ccccc3Sc3ccccc32)n1 (configuration not stated) | 35.5 µM [falling, single point] |  |
| Cc1ccc(F)c(N=Cc2c(O)c3ccccc3oc2=O)c1 | 2.51 µM [falling, full curve] |  |
| O=C(NCCN1CCCC1)c1ccc(Cn2c(=S)[nH]c3ccc(Br)cc3c2=O)cc1 | 12.6 µM [falling, partial curve, poor fit] |  |
| O=C(N/N=C/c1cccnc1)c1cccc(NC(=O)c2cccc(Br)c2)c1 | 35.5 µM [falling, single point] |  |
| CCOC(=O)N1CCN(C(=O)c2nn(-c3cc(OC)cc(OC)c3)c(=O)c3ccccc23)CC1 | 20.6 µM [rising, partial curve, poor fit] |  |
| CC(=O)Nc1cccc(Oc2ncnc3scc(-c4ccc(C)cc4)c23)c1 | 18.4 µM [falling, single point] |  |
| CCN(Cc1cnn(C)c1)C(=O)C1CCC(=O)N(CCc2ccc(OC)cc2)C1 (configuration not stated) | 3.98 µM [falling, full curve, poor fit] |  |
| O=C(NC(=S)NNC(=O)c1ccccc1O)c1ccco1 | 7.31 µM [falling, partial curve] |  |
| CSc1nc(-c2ccccc2)nc(N)c1C(C)=O | 2.31 µM [falling, full curve, poor fit] |  |

2 entries from above in another layout.
SMILES,AC50 [1],AC50 [2]
Cc1cc(C)n(CC(O)CN2c3ccccc3Sc3ccccc32)n1 (configuration not stated),"35.5 µM [falling, single point]",
Cc1ccc(F)c(N=Cc2c(O)c3ccccc3oc2=O)c1,"2.51 µM [falling, full curve]",

The list goes on:

| SMILES | AC50 [1] | AC50 [2] |
| --- | --- | --- |
| CC(C)C(NC(=O)c1ccco1)C(=O)OCC(=O)Nc1ccc(C(N)=O)cc1 (configuration not stated) | 20 µM [rising, single point] |  |
| CCC(=O)Nc1c(C)n[nH]c1C | 5.17 µM [falling, single point] |  |
| CSc1nc2ccc(NC(=O)COc3ccccc3F)cc2s1 | 0.366 µM [rising, full curve] |  |
| N#Cc1cccc(-c2cn(S(=O)(=O)c3ccc(Cl)cc3)nc2N)c1 | 5.8 µM [falling, single point] |  |
| O=C(CN1C(=O)/C(=C/c2ccccc2Cl)SC1=S)NC1C=CS(=O)(=O)C1 (configuration not stated) | 20 µM [falling, single point] |  |
| COCc1cc(C)nc(SCC(=O)Nc2cccc(C)c2C)c1C#N | 0.517 µM [rising, full curve] |  |
| O=C(Nc1cccc(C(F)(F)F)c1)C1CCCN(S(=O)(=O)c2cnc[nH]2)C1 (configuration not stated) | 35.5 µM [falling, single point] |  |
| Cn1c(N)c(C(=O)COC(=O)CCOc2ccc(C(C)(C)C)cc2)c(=O)n(C)c1=O | 25.1 µM [falling, single point] |  |
| COc1cccc(/C=N/NC(=O)c2cnn(-c3ccccc3)c2N)c1 | 10 µM [falling, partial curve] |  |
| COc1ccccc1/C=N\N=C(\N)c1ccccn1 | 0.164 µM [falling, full curve] |  |
| CCOc1ccc(C(=O)N/N=C/c2cccc3cccnc23)cc1 | 12.6 µM [falling, partial curve, poor fit] |  |
| C[C@H](NC(=O)C1(c2ccccc2)CCN(C(=O)[C@H]2CSCN2C(=O)OC(C)(C)C)CC1)C(=O)O | 3.16 µM [falling, single point] |  |
| COc1cccc(-c2coc3c(C)c4oc(=O)c(CC(=O)O)c(C)c4cc23)c1 | 0.708 µM [rising, partial curve, poor fit] |  |
| O=C(CC1OC(=O)c2ccccc21)Nc1cc(Cl)ccc1N1CCCC1 (configuration not stated) | 3.26 µM [falling, partial curve] |  |
| C=CCn1c(NS(=O)(=O)c2ccccc2)c(S(=O)(=O)c2ccc(C)cc2)c2nc3ccccc3nc21 | 7.31 µM [rising, partial curve] | 5.8 µM [falling, full curve] |
| CCC(Sc1ccc(Cl)cc1)C(=O)Nc1nnc(-c2cccc([N+](=O)[O-])c2)s1 (configuration not stated) | 16.4 µM [rising, partial curve] |  |
| N#CNC(=Nc1ccc(F)cc1)SCc1ccccc1 | 11.6 µM [falling, partial curve, poor fit] |  |
| CN(C)/C=C(/C#N)C(=O)c1cccc(Oc2ccc(C(C)(C)C)cc2)c1 | 2.59 µM [falling, partial curve] |  |
| Cc1ccc(NC(=O)CN2C(=O)NC(Cc3ccccc3)C2=O)c(Br)c1 (configuration not stated) | 14.1 µM [rising, single point] |  |
| CCCCn1c(SCC(=O)N2CCCC2)nc2c1c(=O)n(C)c(=O)n2C | 2.24 µM [falling, partial curve, poor fit] |  |
